Experimental data taken from patent publication US5370990A, “Diagnostic assay for fructosamines” (Genzyme Corporation, priority 1991, dated 1994).
At least one structure is not confirmed: it was looked up by name or label, or the drawing left a doubt.

Test system: ketoamine oxidase
Experiment: ketoamine oxidase assay with model substrate BADF (peroxidase/4-aminophenazone colour reaction, 505 nm)
Assay type: biochemical
Conditions: ketoamine oxidase prepared from Debaryomyces vanrijiae var. vanrijiae (Example 3); read-out: Km of the enzyme for BADF

SMILES: CCCCNCC(=O)[C@@H](O)[C@H](O)[C@H](O)CO [BADF, butylamino-deoxy-fructose]
- Km: 80 µM
